Values quoted from earlier work, collected in patent publication US20210338699A1 (priority 2018, published 2021).
For at least one compound, name, drawing or mass did not settle the structure.

Tested on: CML patients
Details: cited from earlier work

Cc1ccc(C(=O)Nc2ccc(CN3CCN(C)CC3)c(C(F)(F)F)c2)cc1C#Cc1cnc2cccnn12 [ponatinib]
major cytogenetic response rate: 54%
